Literature values in US11339442B2, “Methods of detecting insulator dysfunction and oncogene activation for screening, diagnosis and treatment of patients in need thereof” (THE GENERAL HOSPITAL CORPORATION, priority 2015, dated 2022).

Tested on: cell proliferation
Conditions: cited from earlier work

O=C(CCCCCCC(=O)Nc1ccccc1)NO [SAHA, suberanilohydroxamic acid]
concentrations inhibiting cell proliferation: nanomolar concentrations
